Laboratory results from ChEMBL document CHEMBL5500403, “Discovery of a Double-Stapled Short Peptide as a Long-Acting HIV-1 Inactivator with Potential for Oral Bioavailability” (J Med Chem, 2024).

Experiment: Apparent permeability in human Caco-2 cells at 5 uM
Assay type: ADME, cell-based

Papp at 5 µM: 28.5 ×10⁻⁶ cm/s
SMILES: CC(C)NCC(O)COc1cccc2ccccc12 (stereo unspecified) [PROPRANOLOL]
